According to article PMC7888682:
Where two headings read alike, the source gives them in different places. Results are given in words; binding and its absence hold for the method and conditions named. In cells and extracts the contact can be indirect. Some results given as binding are weak or reduced against the parent protein; the word gives no strength.

Sequences of proteins named here, by UniProt entry; tags and fusion partners are left off.
UniProt A2A432: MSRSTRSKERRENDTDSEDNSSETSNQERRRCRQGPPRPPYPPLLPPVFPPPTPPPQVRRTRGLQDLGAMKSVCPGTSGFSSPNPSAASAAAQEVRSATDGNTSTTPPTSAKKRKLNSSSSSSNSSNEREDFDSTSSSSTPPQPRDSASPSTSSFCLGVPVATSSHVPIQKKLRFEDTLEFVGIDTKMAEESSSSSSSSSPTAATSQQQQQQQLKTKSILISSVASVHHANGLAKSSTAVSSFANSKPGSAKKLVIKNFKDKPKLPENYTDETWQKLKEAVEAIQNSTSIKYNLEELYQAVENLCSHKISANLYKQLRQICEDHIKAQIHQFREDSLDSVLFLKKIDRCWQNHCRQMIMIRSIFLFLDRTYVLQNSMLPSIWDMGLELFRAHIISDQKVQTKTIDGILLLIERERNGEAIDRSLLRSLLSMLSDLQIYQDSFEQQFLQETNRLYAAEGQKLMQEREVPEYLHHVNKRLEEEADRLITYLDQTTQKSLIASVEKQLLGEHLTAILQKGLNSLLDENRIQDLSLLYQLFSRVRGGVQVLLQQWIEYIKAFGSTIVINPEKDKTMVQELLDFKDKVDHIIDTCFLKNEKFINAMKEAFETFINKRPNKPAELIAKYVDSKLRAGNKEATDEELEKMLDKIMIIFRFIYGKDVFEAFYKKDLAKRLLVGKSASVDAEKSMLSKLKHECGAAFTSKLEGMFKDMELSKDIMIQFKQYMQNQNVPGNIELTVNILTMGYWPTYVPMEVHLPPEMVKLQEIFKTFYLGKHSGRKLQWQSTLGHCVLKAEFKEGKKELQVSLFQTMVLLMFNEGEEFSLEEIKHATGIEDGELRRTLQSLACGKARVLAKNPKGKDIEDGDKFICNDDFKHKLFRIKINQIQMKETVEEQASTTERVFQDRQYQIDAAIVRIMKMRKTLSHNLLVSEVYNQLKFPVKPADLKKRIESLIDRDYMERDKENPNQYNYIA
UniProt Q80TR8: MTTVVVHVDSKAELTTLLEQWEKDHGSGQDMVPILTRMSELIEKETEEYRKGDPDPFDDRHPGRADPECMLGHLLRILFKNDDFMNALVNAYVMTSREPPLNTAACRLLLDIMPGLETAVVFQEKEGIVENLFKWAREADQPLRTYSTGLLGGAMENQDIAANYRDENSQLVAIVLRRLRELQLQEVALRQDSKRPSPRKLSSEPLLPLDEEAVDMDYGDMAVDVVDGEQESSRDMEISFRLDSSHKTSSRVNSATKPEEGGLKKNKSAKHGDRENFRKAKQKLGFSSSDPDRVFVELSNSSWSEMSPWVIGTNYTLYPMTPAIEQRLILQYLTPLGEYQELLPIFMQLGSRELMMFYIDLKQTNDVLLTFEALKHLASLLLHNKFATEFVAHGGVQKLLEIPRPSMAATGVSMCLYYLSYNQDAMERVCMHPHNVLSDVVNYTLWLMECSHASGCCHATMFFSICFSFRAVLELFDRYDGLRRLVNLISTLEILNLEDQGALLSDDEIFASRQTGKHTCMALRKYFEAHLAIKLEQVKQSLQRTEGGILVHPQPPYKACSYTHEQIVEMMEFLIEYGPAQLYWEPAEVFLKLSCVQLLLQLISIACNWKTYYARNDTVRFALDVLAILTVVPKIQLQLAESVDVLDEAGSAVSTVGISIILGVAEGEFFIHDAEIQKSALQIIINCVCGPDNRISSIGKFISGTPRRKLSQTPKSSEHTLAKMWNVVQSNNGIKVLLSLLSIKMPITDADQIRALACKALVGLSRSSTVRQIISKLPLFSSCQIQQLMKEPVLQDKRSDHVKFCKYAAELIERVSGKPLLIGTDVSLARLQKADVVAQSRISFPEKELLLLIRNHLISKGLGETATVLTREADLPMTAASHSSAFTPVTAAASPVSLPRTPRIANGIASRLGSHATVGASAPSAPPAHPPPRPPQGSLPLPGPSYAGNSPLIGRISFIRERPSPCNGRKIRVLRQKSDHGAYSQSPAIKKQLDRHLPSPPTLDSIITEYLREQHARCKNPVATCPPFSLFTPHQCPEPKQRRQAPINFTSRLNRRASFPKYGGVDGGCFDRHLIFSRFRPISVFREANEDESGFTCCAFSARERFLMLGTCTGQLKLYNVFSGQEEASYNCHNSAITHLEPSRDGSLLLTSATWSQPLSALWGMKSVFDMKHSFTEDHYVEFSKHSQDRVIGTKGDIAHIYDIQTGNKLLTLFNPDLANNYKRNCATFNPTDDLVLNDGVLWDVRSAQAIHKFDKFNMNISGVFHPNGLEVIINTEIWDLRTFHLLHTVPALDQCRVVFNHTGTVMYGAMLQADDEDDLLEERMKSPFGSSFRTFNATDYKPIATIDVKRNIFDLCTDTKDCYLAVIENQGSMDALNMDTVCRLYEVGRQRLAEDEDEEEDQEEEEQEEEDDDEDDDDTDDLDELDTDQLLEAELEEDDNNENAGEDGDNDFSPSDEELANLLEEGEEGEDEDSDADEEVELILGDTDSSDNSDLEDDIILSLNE

T1: SMC1A (mouse (endogenous in CD4+ T cells)) (UniProt Q9CU62)
T1 sequence: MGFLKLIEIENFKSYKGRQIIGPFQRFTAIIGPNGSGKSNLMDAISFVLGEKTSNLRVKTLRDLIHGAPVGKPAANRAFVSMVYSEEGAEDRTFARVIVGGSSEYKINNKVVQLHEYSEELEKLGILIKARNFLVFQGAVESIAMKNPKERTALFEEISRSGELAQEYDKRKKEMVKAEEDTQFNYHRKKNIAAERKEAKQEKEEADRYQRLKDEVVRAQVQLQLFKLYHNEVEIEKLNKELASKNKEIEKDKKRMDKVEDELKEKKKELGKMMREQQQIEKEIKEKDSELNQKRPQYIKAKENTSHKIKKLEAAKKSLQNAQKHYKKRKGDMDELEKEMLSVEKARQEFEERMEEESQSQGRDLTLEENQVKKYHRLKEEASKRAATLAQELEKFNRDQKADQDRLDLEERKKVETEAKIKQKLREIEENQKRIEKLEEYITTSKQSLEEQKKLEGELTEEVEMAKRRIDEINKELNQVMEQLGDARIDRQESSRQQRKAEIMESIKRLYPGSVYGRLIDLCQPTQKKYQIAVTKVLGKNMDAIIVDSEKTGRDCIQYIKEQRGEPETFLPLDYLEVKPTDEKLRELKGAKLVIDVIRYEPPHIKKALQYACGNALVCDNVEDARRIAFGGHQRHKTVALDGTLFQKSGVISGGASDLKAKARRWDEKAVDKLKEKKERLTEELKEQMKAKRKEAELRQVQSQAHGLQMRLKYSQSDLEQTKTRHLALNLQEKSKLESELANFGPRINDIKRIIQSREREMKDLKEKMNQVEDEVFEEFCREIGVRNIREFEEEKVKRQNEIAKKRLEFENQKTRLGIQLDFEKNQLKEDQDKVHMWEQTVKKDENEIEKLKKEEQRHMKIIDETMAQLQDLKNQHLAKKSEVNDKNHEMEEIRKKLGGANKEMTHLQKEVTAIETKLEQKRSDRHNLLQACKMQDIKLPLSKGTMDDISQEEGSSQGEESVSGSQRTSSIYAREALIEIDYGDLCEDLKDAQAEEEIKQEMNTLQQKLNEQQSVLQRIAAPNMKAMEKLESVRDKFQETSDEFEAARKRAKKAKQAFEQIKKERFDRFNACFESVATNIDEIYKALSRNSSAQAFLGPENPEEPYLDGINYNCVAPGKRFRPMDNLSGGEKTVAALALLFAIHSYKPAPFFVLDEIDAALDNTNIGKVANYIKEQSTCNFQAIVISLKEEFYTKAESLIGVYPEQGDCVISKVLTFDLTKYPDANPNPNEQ


Key:
Experiment in all cases: co-IP; endogenous IP and western blot from TCR-stimulated mouse CD4+ T cells; 1% Triton-X, 50 mM Tris pH 8, 100 mM NaCl; 2 to 3 mg extract, Dynabeads with 5 to 8 ug antibody, overnight; lysates preincubated with DNase I (10 ug/ml)
[1] = biological target: Cullin-4b (mouse (endogenous in CD4+ T cells)) (UniProt A2A432)
[2] = biological target: T1, SMC1A (mouse (endogenous in CD4+ T cells))
[3] = biological target: Cullin-4b (mouse (endogenous in CD4+ T cells)) (UniProt A2A432); remark: listed apart in the source
[4] = biological target: Vprbp (DCAF1) (mouse (endogenous in CD4+ T cells)) (UniProt Q80TR8)

Molecule | binding [1] | binding [2] | binding [3] | binding [4]
Vprbp (DCAF1) (from UniProt Q80TR8 1-1506) | binds | binds |  | 
MRE11A (protein, UniProt Q61216 1-706) MSPTDPLDDEDTFKILVATDIHLGFMEKDAVRGNDTFVTFDEILRLALENEVDFILLGGDLFHENKPSRKTLHSCLELLRKYCMGDRPVQFEVISDQSVNFGFSKFPWVNYQDGNLNISIPVFSIHGNHDDPTGADALCALDVLSCAGFVNHFGRSMSVEKVDISPVLLQKGSTKLALYGLGSIPDERLYRMFVNKKVTMLRPKEDENSWFNLFVIHQNRSKHGNTNFIPEQFLDDFIDLVIWGHEHECKIGPIKNEQQLFYVSQPGSSVVTSLSPGEAVKKHVGLLRIKGRKMNMQKLPLRTVRRFFIEDVVLANHPNLFNPDNPKVTQAIQSFCLEKIEEMLDSAERERLGNPQQPGKPLIRLRVDYSGGFEPFNVLRFSQKFVDRVANPKDVIHFFRHREQKGKTGEEINFGMLITKPASEGATLRVEDLVKQYFQTAEKNVQLSLLTERGMGEAVQEFVDKEEKDAIEELVKYQLEKTQRFLKERHIDALEDKIDEEVRRFRESRQRNTNEEDDEVREAMSRARALRSQSETSTSAFSAEDLSFDTSEQTANDSDDSLSAVPSRGRGRGRGRRGARGQSSAPRGGSQRGRDTGLEITTRGRSSKATSSTSRNMSIIDAFRSTRQQPSRNVAPKNYSETIEVDDSDEDDIFPTNSRADQRWSGTTSSKRMSQSQTAKGVDFESDEDDDDDPFMSSSCPRRNRR |  |  | binds | binds
SMC1A (protein, UniProt Q9CU62 1-1233) MGFLKLIEIENFKSYKGRQIIGPFQRFTAIIGPNGSGKSNLMDAISFVLGEKTSNLRVKTLRDLIHGAPVGKPAANRAFVSMVYSEEGAEDRTFARVIVGGSSEYKINNKVVQLHEYSEELEKLGILIKARNFLVFQGAVESIAMKNPKERTALFEEISRSGELAQEYDKRKKEMVKAEEDTQFNYHRKKNIAAERKEAKQEKEEADRYQRLKDEVVRAQVQLQLFKLYHNEVEIEKLNKELASKNKEIEKDKKRMDKVEDELKEKKKELGKMMREQQQIEKEIKEKDSELNQKRPQYIKAKENTSHKIKKLEAAKKSLQNAQKHYKKRKGDMDELEKEMLSVEKARQEFEERMEEESQSQGRDLTLEENQVKKYHRLKEEASKRAATLAQELEKFNRDQKADQDRLDLEERKKVETEAKIKQKLREIEENQKRIEKLEEYITTSKQSLEEQKKLEGELTEEVEMAKRRIDEINKELNQVMEQLGDARIDRQESSRQQRKAEIMESIKRLYPGSVYGRLIDLCQPTQKKYQIAVTKVLGKNMDAIIVDSEKTGRDCIQYIKEQRGEPETFLPLDYLEVKPTDEKLRELKGAKLVIDVIRYEPPHIKKALQYACGNALVCDNVEDARRIAFGGHQRHKTVALDGTLFQKSGVISGGASDLKAKARRWDEKAVDKLKEKKERLTEELKEQMKAKRKEAELRQVQSQAHGLQMRLKYSQSDLEQTKTRHLALNLQEKSKLESELANFGPRINDIKRIIQSREREMKDLKEKMNQVEDEVFEEFCREIGVRNIREFEEEKVKRQNEIAKKRLEFENQKTRLGIQLDFEKNQLKEDQDKVHMWEQTVKKDENEIEKLKKEEQRHMKIIDETMAQLQDLKNQHLAKKSEVNDKNHEMEEIRKKLGGANKEMTHLQKEVTAIETKLEQKRSDRHNLLQACKMQDIKLPLSKGTMDDISQEEGSSQGEESVSGSQRTSSIYAREALIEIDYGDLCEDLKDAQAEEEIKQEMNTLQQKLNEQQSVLQRIAAPNMKAMEKLESVRDKFQETSDEFEAARKRAKKAKQAFEQIKKERFDRFNACFESVATNIDEIYKALSRNSSAQAFLGPENPEEPYLDGINYNCVAPGKRFRPMDNLSGGEKTVAALALLFAIHSYKPAPFFVLDEIDAALDNTNIGKVANYIKEQSTCNFQAIVISLKEEFYTKAESLIGVYPEQGDCVISKVLTFDLTKYPDANPNPNEQ |  |  | binds | binds
